For 2 molecules, binding results are on record in publication PMC11399625.

Protein sequences, listed by entry. Tags and fused reporters are not part of them.
UniProt P03071: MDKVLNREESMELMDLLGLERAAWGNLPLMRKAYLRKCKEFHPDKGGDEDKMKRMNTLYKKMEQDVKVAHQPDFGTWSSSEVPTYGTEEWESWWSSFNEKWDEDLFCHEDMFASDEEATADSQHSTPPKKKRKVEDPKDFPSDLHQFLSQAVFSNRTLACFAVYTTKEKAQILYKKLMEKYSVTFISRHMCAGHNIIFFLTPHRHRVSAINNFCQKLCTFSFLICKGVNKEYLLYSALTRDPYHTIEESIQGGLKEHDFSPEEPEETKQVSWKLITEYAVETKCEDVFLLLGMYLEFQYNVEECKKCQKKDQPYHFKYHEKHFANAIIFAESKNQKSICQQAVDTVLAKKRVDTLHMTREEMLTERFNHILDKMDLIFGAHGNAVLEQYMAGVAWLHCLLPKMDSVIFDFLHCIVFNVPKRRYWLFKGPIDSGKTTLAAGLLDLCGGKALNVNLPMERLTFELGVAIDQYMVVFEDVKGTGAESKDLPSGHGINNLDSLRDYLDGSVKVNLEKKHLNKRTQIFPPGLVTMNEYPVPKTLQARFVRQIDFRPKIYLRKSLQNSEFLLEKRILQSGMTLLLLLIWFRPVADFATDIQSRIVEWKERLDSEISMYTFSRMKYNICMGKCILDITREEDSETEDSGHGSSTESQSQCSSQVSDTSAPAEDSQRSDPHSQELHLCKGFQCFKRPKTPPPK

Read-outs that look alike come from different tables or passages of the source. Results are given in words; binding and its absence hold for the method and conditions named. In cells and extracts the contact can be indirect. Some results given as binding are weak or reduced against the parent protein; the word gives no strength. For some assays here: Tags and fused reporters may be left off the sequences shown.

Experiment [1] has as its target BKPyV TAg (BK polyomavirus large T antigen) (BK polyomavirus) (UniProt P03071). Briefly: co-IP; HRPTECs co-transfected with TAg plasmid and FLAG-tagged MxA (WT or mutant) for 12 h; lysis in 50 mM Tris pH 8.0, 150 mM NaCl, 1 mM EDTA, 0.5 % Nonidet P-40; immunoprecipitation with anti-SV40 TAg antibody on protein G agarose; immunoblot with anti-FLAG. (Immunoblotting shows a protein as a band on a membrane.)

The target is the same in experiment [2]. Described as above. This is another data set of the same source.

In the case of “FLAG-tagged MxA K83A mutant (from UniProt P20591 1-662)”, in experiment [1], the binding result is listed as “binds”.

B1: FLAG-tagged wild-type MxA (human myxovirus resistance protein A) (protein, UniProt P20591 1-662)
chain: MVVSEVDIAKADPAAASHPLLLNGDATVAQKNPGSVAENNLCSQYEEKVRPCIDLIDSLRALGVEQDLALPAIAVIGDQSSGKSSVLEALSGVALPRGSGIVTRCPLVLKLKKLVNEDKWRGKVSYQDYEIEISDASEVEKEINKAQNAIAGEGMGISHELITLEISSRDVPDLTLIDLPGITRVAVGNQPADIGYKIKTLIKKYIQRQETISLVVVPSNVDIATTEALSMAQEVDPEGDRTIGILTKPDLVDKGTEDKVVDVVRNLVFHLKKGYMIVKCRGQQEIQDQLSLSEALQREKIFFENHPYFRDLLEEGKATVPCLAEKLTSELITHICKSLPLLENQIKETHQRITEELQKYGVDIPEDENEKMFFLIDKVNAFNQDITALMQGEETVGEEDIRLFTRLRHEFHKWSTIIENNFQEGHKILSRKIQKFENQYRGRELPGFVNYRTFETIVKQQIKALEEPAVDMLHTVTDMVRLAFTDVSIKNFEEFFNLHRTAKSKIEDIRAEQEREGEKLIRLHFQMEQIVYCQDQVYRGALQKVREKELEEEKKKKSWDFGAFQSSSATDSSMEEIFQHLMAYHQEASKRISSHIPLIIQFFMLQTYGQQLQKAMLQLLQDKDTYSWLLKERSDTSDKRKFLKERLARLTQARRRLAQFPG
On to B1, for which the binding result in experiment [2] is “binds”.
